Laboratory results published in PubChem BioAssay AID493014 (National Center for Advancing Translational Sciences (NCATS), 2011).
The list shows a part of the results. Further columns of the screen follow, without active or inactive calls. Compounds called inactive in the main read-out are mostly missing here. The note in brackets gives the kind of curve behind each potency; many fits are weak.

Assay: qHTS Assay to Find Inhibitors of Chronic Active B-Cell Receptor Signaling
Conditions: ABC-DLBCL IkBa-CBG/CBR reporter, luminescence ratio (green luciferase fused to IkBa over red control in TMD8 lymphoma cells), 4 h
Procedure, shortened: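 TMD8 human ABC-DLBCL cells with doxycycline-inducible IκBα–green luciferase fusion and unfused red luciferase, in 0.5% FBS medium; compounds up to 46 uM, 4 h at 37C. Green/red luminescence ratio, filter-overlap corrected, fitted to concentration-response curves.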

[1] = measured here: CBR red luminescence, cell number
[2] = measured here: IkBa-CBG green luminescence

Question: For `COc1ccccc1N1C(=O)c2ccc(C(=O)Nc3ccccc3O)cc2C1=O`, which AC50 [1] is on record?
Answer: Its AC50 is 25.1 µM [falling, single point].

Question: Which AC50 [1] does the source give for `O=C(Nc1ccc(Cl)cc1)Nc1nnc(SCc2ccccc2)s1` here?
Answer: The AC50 was 0.82 µM [rising, full curve, poor fit].

Question: Which AC50 [1] does the source give for `Cn1cccc1-c1cc(C(=O)N/N=C/c2ccccc2Cl)[nH]n1` here?
Answer: The AC50 was 8.91 µM [falling, partial curve, poor fit].

Question: With `O=C(NNc1ncccc1-n1cccc1)c1ccc(Cl)cc1` as the compound, how does the AC50 [1] read?
Answer: The AC50 was 10 µM [rising, partial curve, poor fit].

Question: Which AC50 [1] does the source give for `COc1ccc2cc(-c3ccccc3)c(=O)oc2c1` here?
Answer: Its AC50 is 8.91 µM [falling, partial curve, poor fit].

Question: Which AC50 [1] does the source give for `Cc1ccccc1CN1C(=O)c2ccccc2S(=O)c2ccc(C(=O)NCCCN3CCOCC3)cc21` (stereo not drawn) here?
Answer: The AC50 was 14.1 µM [falling, single point].

Question: With `CC1CCCC(NC(=O)CSC2CCCCC2)C1C` (stereo not drawn) as the compound, how does the AC50 [1] read?
Answer: The AC50 was 0.398 µM [falling, partial curve, poor fit].

Question: With `C=CC(=O)Nc1cccc(Oc2cc(Cl)nc3[nH]ccc23)c1` as the compound, how does the AC50 [1] read?
Answer: Its AC50 is 11.6 µM [falling, partial curve, poor fit].

Question: For `CCCC1=Nc2cc(C(=O)NC3CCCCC3)ccc2Sc2ccc(C)cc21`, which AC50 [1] is on record?
Answer: Its AC50 is 1.41 µM [rising, full curve, poor fit].

Question: And the AC50 [2]?
Answer: The AC50 was 1.26 µM [falling, full curve].

Question: For `COc1ccc(NC(=O)Cn2c(-c3ccc(F)cc3)cc(C(C)=O)c2C)c(OC)c1`, which AC50 [1] is on record?
Answer: The AC50 was 6.31 µM [rising, single point].

Question: With `CN(C)S(=O)(=O)c1cccc(NC(=O)c2ccc(COc3ccccc3)cc2)c1` as the compound, how does the AC50 [1] read?
Answer: Its AC50 is 35.5 µM [falling, single point].

Question: For `O=[N+]([O-])c1cc(/C=N/Nc2nc3ccccc3[nH]2)c(O)cc1O`, which AC50 [1] is on record?
Answer: Its AC50 is 0.366 µM [falling, full curve].

Question: For `CC(C)CCNC(=O)C(c1ccc(O)cc1)N(C(=O)C1COc2ccccc2O1)c1cccc(O)c1` (stereo not drawn), which AC50 [1] is on record?
Answer: The AC50 was 28.2 µM [falling, partial curve, poor fit].

Question: For `CCOc1cccc2cc(-c3nnc(NCc4ccco4)s3)c(=O)oc12`, which AC50 [1] is on record?
Answer: Its AC50 is 10 µM [falling, partial curve, poor fit].

Question: With `COc1c(C(=O)NNC(=O)c2ccccc2)csc1Br` as the compound, how does the AC50 [1] read?
Answer: The AC50 was 12.6 µM [falling, partial curve, poor fit].

Question: With `Clc1ccccc1-c1nn2c(COc3ccccc3)nnc2s1` as the compound, how does the AC50 [1] read?
Answer: Its AC50 is 0.164 µM [rising, full curve].

Question: For `Cc1ccc2nc(Nc3nc(-c4ccccc4)cc(=O)[nH]3)nc(C)c2c1`, which AC50 [1] is on record?
Answer: Its AC50 is 35.5 µM [falling, single point].

Question: For `COc1ccc(C(=O)N(C)Cc2cnn(Cc3ccccc3)c2)cc1S(=O)(=O)N1CCOCC1`, which AC50 [1] is on record?
Answer: Its AC50 is 29.1 µM [rising, single point].

Question: And the AC50 [2]?
Answer: Its AC50 is 16.4 µM [falling, partial curve, poor fit].

Question: Which AC50 [1] does the source give for `O=C(Nc1ccc(OC(F)F)c(Cl)c1)c1ccccn1` here?
Answer: The AC50 was 10 µM [falling, single point].

Question: For `Nc1c(Cl)ncnc1N/N=C/c1ccccn1`, which AC50 [1] is on record?
Answer: The AC50 was 29.1 µM [rising, single point].

Question: What about the AC50 [2] of the same compound?
Answer: Its AC50 is 29.1 µM [falling, single point].

Question: Which AC50 [1] does the source give for `O=C(NN=C1CCC(=NNC(=O)c2ccccn2)CC1)c1ccccn1` here?
Answer: Its AC50 is 15.8 µM [falling, partial curve, poor fit].

Question: For `CCS(=O)(=O)N1CCC(NC(=O)C(Cc2cc(OC)ccc2OC)NC(C)=O)CC1` (stereo not drawn), which AC50 [1] is on record?
Answer: Its AC50 is 11.2 µM [rising, partial curve, poor fit].

Question: With `COc1ccc(Cl)cc1C(=O)N1CCC2(CC1)CC(=O)c1ccccc1O2` as the compound, how does the AC50 [1] read?
Answer: The AC50 was 8.2 µM [falling, partial curve].

Question: With `CCCC(=O)NC(c1ccccc1Cl)c1c(O)ccc2ccccc12` (stereo not drawn) as the compound, how does the AC50 [1] read?
Answer: The AC50 was 29.1 µM [falling, single point].

Question: Which results are given for `COc1ccccc1NC(=O)/C=C/C(N)=O`?
Answer: AC50 [1]: 25.9 µM [falling, partial curve, poor fit]; AC50 [2]: 18.4 µM [rising, partial curve, poor fit]

Question: Which AC50 [1] does the source give for `CCCNC(=O)c1cccc(Br)c1` here?
Answer: The AC50 was 1 µM [rising, full curve, poor fit].

Question: With `O=C(CN1C(=O)COc2ccccc21)N1CCCc2ccccc21` as the compound, how does the AC50 [1] read?
Answer: The AC50 was 6.51 µM [falling, single point].

Question: With `CCOc1ccc(C(=O)Nc2ccc(S(=O)(=O)NCC3CCCO3)cc2)cc1OCC` (stereo not drawn) as the compound, how does the AC50 [1] read?
Answer: The AC50 was 0.447 µM [rising, full curve, poor fit].

Question: For `CCOc1ncccc1C(=O)NCC1COc2ccccc2O1` (stereo not drawn), which AC50 [1] is on record?
Answer: Its AC50 is 0.1 µM [falling, full curve, poor fit].

Question: With `COc1ccc(C(=O)NCCSC2CCCCC2)cc1` as the compound, how does the AC50 [1] read?
Answer: Its AC50 is 16.4 µM [rising, partial curve, poor fit].

Question: With `CC(c1cc2ccccc2s1)N(O)C(N)=O` (stereo not drawn) as the compound, how does the AC50 [1] read?
Answer: The AC50 was 15.8 µM [rising, single point].

Question: For `Cc1ccccc1S(=O)(=O)Cc1ccc(C(=O)NCCN(CC(C)C)CC(C)C)o1`, which AC50 [1] is on record?
Answer: Its AC50 is 17.8 µM [falling, single point].

Question: With `CCOc1ccc(NC(=O)CCSc2ccc3ccccc3n2)cc1` as the compound, how does the AC50 [1] read?
Answer: The AC50 was 18.4 µM [rising, single point].

Question: For `COc1ccc(OC)c(CN2CCN(c3ccc(S(=O)(=O)N4CCCC4)cn3)CC2)c1`, which AC50 [1] is on record?
Answer: Its AC50 is 20.6 µM [falling, partial curve, poor fit].

Question: Which AC50 [1] does the source give for `CCOC(=O)C1CCN(C(=O)COc2ccc(Br)cc2Br)CC1` here?
Answer: Its AC50 is 20 µM [falling, partial curve, poor fit].

Question: For `Fc1ccccc1-c1nc(-c2ccncc2)no1`, which AC50 [1] is on record?
Answer: Its AC50 is 0.112 µM [rising, full curve, poor fit].

Question: With `CN1CCc2c(sc3c2C(=O)NC(c2ccco2)N3)C1` (stereo not drawn) as the compound, how does the AC50 [1] read?
Answer: Its AC50 is 2 µM [falling, full curve, poor fit].

Question: Which AC50 [1] does the source give for `CC1CC(C)CN(C(=O)c2cccc3c2-c2ccccc2C3=O)C1` (stereo not drawn) here?
Answer: Its AC50 is 0.1 µM [rising, full curve, poor fit].

Question: For `Cc1onc(-c2ccccc2)c1C(=O)NNC(=S)NC(=O)c1ccc(F)cc1`, which AC50 [1] is on record?
Answer: The AC50 was 25.9 µM [falling, single point].

Question: For `COc1ccccc1CN1C[C@@H]2C[C@@H](c3ccc(C)c(C)c3)N3CCC[C@@]23C1=O`, which AC50 [2] is on record?
Answer: The AC50 was 35.5 µM [rising, partial curve, poor fit].

Question: For `CN(c1ccccc1)c1nc(N)c([N+](=O)[O-])c(N2CCCCC2)n1`, which AC50 [1] is on record?
Answer: Its AC50 is 4.47 µM [rising, partial curve, poor fit].

Question: With `O=C(Nc1cccc(O)c1)C1CC(c2cccc(Br)c2)=NO1` (stereo not drawn) as the compound, how does the AC50 [1] read?
Answer: Its AC50 is 20 µM [falling, partial curve, poor fit].

Question: Which AC50 [1] does the source give for `O=C(C(=O)N1CCN(c2ccc(F)cc2)CC1)c1c[nH]c2ccccc12` here?
Answer: Its AC50 is 7.08 µM [falling, partial curve].

Question: Which AC50 [1] does the source give for `CCn1c(SCc2ccccc2F)nnc1-c1ccncc1` here?
Answer: Its AC50 is 6.31 µM [rising, single point].

Question: With `CC(C)(C)c1nc(N)nc(=O)[nH]1` as the compound, how does the AC50 [1] read?
Answer: The AC50 was 0.447 µM [falling, partial curve, poor fit].

Question: With `Cc1cccc2[nH]c3c(N4CC=C(c5ccc(F)cc5)CC4)ncnc3c12` as the compound, how does the AC50 [1] read?
Answer: Its AC50 is 35.5 µM [falling, single point].

Question: With `Cc1cc(N2CCOCC2)ccc1/C=C1\SC(=O)N(C(C)C)C1=O` as the compound, how does the AC50 [1] read?
Answer: Its AC50 is 1.58 µM [rising, partial curve].

Question: For `Cc1ccc(NC(=S)NNC(=O)c2ccccc2O)c(C)c1`, which AC50 [1] is on record?
Answer: The AC50 was 5.01 µM [falling, partial curve].

Question: Which AC50 [1] does the source give for `CC(=O)C[C@H](O)CC(=O)[C@H]1OC(=O)CCCCCc2ccccc21` here?
Answer: Its AC50 is 32.6 µM [rising, single point].

Question: For `CC(=O)Nc1ccc(Cc2ccc3[nH]c(=O)cc(C)c3c2)cc1`, which AC50 [1] is on record?
Answer: The AC50 was 0.794 µM [rising, full curve, poor fit].

Question: For `COCC(=O)N1CCC(Oc2ccc(C(=O)NCCCC3CCCC3)cc2)CC1`, which AC50 [1] is on record?
Answer: Its AC50 is 0.891 µM [falling, full curve].

Question: With `COCCN(C(=O)Nc1ccccc1)C(C)c1cccnc1` (stereo not drawn) as the compound, how does the AC50 [1] read?
Answer: The AC50 was 0.0891 µM [rising, full curve, poor fit].

Question: With `Cc1ccc2c(c1)C(c1ccncc1)=NNC(c1ccccc1)=N2` as the compound, how does the AC50 [1] read?
Answer: Its AC50 is 15.8 µM [falling, single point].

Question: Which AC50 [1] does the source give for `O=C(Nc1nc(-c2ccccc2Cl)cs1)c1cccnc1` here?
Answer: Its AC50 is 4.61 µM [falling, partial curve, poor fit].

Question: With `O=C(O)CN1C(=O)CSC1=S` as the compound, how does the AC50 [1] read?
Answer: The AC50 was 31.6 µM [rising, single point].

Question: For `COc1ccc(/C=C(/C#N)C(=O)Nc2cc(C)ccc2C)cc1C(=O)O`, which AC50 [1] is on record?
Answer: Its AC50 is 35.5 µM [falling, single point].

Question: For `Cc1ccc(C(=O)O)cc1NC(=S)NC(=O)c1ccc([N+](=O)[O-])cc1Cl`, which AC50 [1] is on record?
Answer: Its AC50 is 20.6 µM [falling, single point].

Question: Which AC50 [1] does the source give for `CC(C)COC(=O)C1[C@H]2C(=O)N(Cc3cccs3)C[C@]23C=C[C@H]1O3` (stereo partly drawn) here?
Answer: The AC50 was 20.6 µM [rising, single point].

Question: With `Cc1c(/C=N/Nc2nc3ccccc3[nH]2)c2ccccc2n1C` as the compound, how does the AC50 [1] read?
Answer: The AC50 was 35.5 µM [falling, single point].

Question: For `CP(=O)(COC(=O)c1ccccc1)COC(=O)c1ccccc1`, which AC50 [1] is on record?
Answer: The AC50 was 8.91 µM [falling, partial curve, poor fit].

Question: Which AC50 [1] does the source give for `CC(C)N1CCc2c(sc(NC(=O)c3ccc4ccccc4c3)c2C(N)=O)C1` here?
Answer: The AC50 was 15.8 µM [falling, single point].

Question: With `COCCn1cnnc1SCC(=O)Nc1sc2c(c1C#N)CCC2` as the compound, how does the AC50 [1] read?
Answer: The AC50 was 6.51 µM [rising, single point].

Question: Which AC50 [1] does the source give for `O=C(NC1CC(=O)N(c2ccc(Cl)cc2)C1)c1cc2ccccc2o1` (stereo not drawn) here?
Answer: The AC50 was 12.6 µM [rising, single point].

Question: Which AC50 [1] does the source give for `CC#CC(=O)N1CCC(Oc2cccc(C(=O)NCc3ccccn3)c2)CC1` here?
Answer: Its AC50 is 15.8 µM [falling, single point].
